These results are taken from PubChem BioAssay AID445 (National Center for Advancing Translational Sciences (NCATS), 2006).

Some of the results follow. These are further read-outs of the screen, such as a control signal, another cell line or another target. No call is given for them. Most of these compounds were active or inconclusive in the main read-out, so they are no random draw. The note in brackets gives the kind of curve behind each potency; many fits are weak.

This experiment is described as follows: IkB Signaling. The conditions noted are these: ABC-DLBCL IkBa-CBG/CBR dual luciferase ratio (green luciferase fused to IkBa over red control in OCI-Ly3 lymphoma cells), 4 h. In outline: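 Curves were fitted separately to fusion (green), unfused (red) and ratio luminescence, then classed by r2, magnitude and activity. Cells: OCI-Ly3, 4 h compound plus doxycycline at 37C; 10 uM MG-132 defined full response.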
[1] abbreviates: measured here: control luc red channel unless noted.

The term AC50 denotes the concentration at which the activity in the assay is half-maximal. As for `COc1ccc(N2CC(C(=O)Nc3ccccc3-c3nc(-c4ccc(C)cc4)no3)CC2=O)cc1` (stereo not drawn), under setting [1], the AC50 is 10 µM [falling, partial curve]. Regarding `Cn1c(=O)c2c(nc(NCc3ccccc3)n2Cc2ccc(Cl)c(Cl)c2)n(C)c1=O`, under setting [1], the AC50 is 12.6 µM [falling, partial curve].

In the case of `COc1cccc(NC(=O)c2oc3ccc(S(=O)(=O)N4CCC5(CC4)OCCO5)cc3c2C)c1`, under setting [1], the AC50 is 25.1 µM [falling, partial curve]. As to `CN(C)c1ccc(CNS(=O)(=O)c2csc(C(N)=O)c2)cc1`, the concentration at half-maximal activity (AC50) under setting [1] was 31.6 µM [falling, single point]. In the case of `O=C(NCC(c1ccco1)S(=O)(=O)c1cccs1)c1ccc(C(F)(F)F)cc1` (stereo not drawn), the AC50 under setting [1] is 0.0501 µM [falling, full curve, poor fit].

For `CC(=O)OC(/C(O)=C(\C#N)c1nc2ccccc2[nH]1)c1ccccc1` (stereo not drawn), the AC50 under setting [1] was 7.94 µM [falling, partial curve]. The same measure, in the same setting: with `COc1cccc(NC(=O)Nc2cc(-c3cn4cccnc4n3)ccc2OC)c1` the figure was 31.6 µM [falling, single point]; with `Cc1ccccc1NC(=O)CSc1nc2ccc(NC(=O)c3ccco3)cc2s1`, 39.8 µM [falling, single point].

Consider `COc1ccc(C)cc1NC(=O)c1cc(S(=O)(=O)NCCC2=CCCCC2)ccc1F`, for which the AC50 under setting [1] is 15.8 µM [falling, partial curve]. `O=C(CSCc1ccc(F)cc1)N1CCc2c([nH]c3ccccc23)C1c1ccccc1` (stereo not drawn): under setting [1], the AC50 was 39.8 µM [falling, partial curve, poor fit]. Consider `CCCOc1ccc(Cn2c(=O)sc3ccccc32)cc1`, for which, under setting [1], the AC50 is 31.6 µM [falling, single point].

For `COc1ccccc1NC(=O)c1c(NC(=O)c2cccs2)sc2c1CCC(C(C)(C)C)C2` (stereo not drawn), the AC50 under setting [1] is 7.94 µM [falling, partial curve]. For the molecule `CCn1c(SCC(=O)OC)nc2sc3c(c2c1=O)CCC3`, the concentration at half-maximal activity (AC50) under setting [1] is 1 µM [rising, partial curve]. In the case of `CCc1ccc(OC(=O)c2sc3ncn(Cc4cccc(F)c4)c(=O)c3c2C)cc1`, under setting [1], the AC50 is 0.794 µM [rising, full curve]. With `O=C(Nc1ccccc1)Nc1ccc(S(=O)(=O)N2CCCCC2)cc1`, the AC50 under setting [1] was 39.8 µM [falling, single point]. Turning to `Cc1ccc(CCNC(=O)C2CCCN(S(=O)(=O)c3ccc4c(c3)oc(=O)n4C)C2)cc1` (stereo not drawn), under setting [1], the AC50 was 2 µM [falling, partial curve]. `CCc1ccc(C(=O)c2cn(Cc3ccccc3)c3cc(OC)c(OC)cc3c2=O)cc1`: the AC50 under setting [1] is 25.1 µM [falling, single point]. On the same count and under the same terms, with `CCCCOC(=O)c1ccc(Nc2nc3ccc(C)cc3n3cnnc23)cc1` the figure was 1 µM [falling, full curve]; with `Cc1ccc(CSCCC(=O)N2CCN(c3cc(C)ccc3C)CC2)cc1`, 31.6 µM [falling, partial curve].

On to `CCCN(CCC)C(=O)C1CCCN(c2ncnc3onc(-c4ccc(F)cc4)c23)C1` (stereo not drawn), for which the AC50 under setting [1] is 15.8 µM [falling, partial curve]. For `COc1ccc(-c2noc(CN(C(=O)Cc3ccc(C)cc3)C(C)C)n2)cc1`, under setting [1], the AC50 was 25.1 µM [falling, partial curve]. As to `COCCCNC(=O)c1sc2nc(C)c(C(=O)Nc3ccc(C)cc3C)c(-c3ccc(Br)cc3)c2c1N`, under setting [1], the AC50 was 10 µM [falling, partial curve].

For the molecule `CCC(C)NC(=O)CSc1nnc(-c2ccc(C)cc2)c(-c2ccc(C)cc2)n1` (stereo not drawn), the AC50 under setting [1] is 25.1 µM [falling, partial curve]. `Cc1cn2c(=O)cc(COC(=O)c3ccccc3F)nc2s1`: under setting [1], the AC50 was 3.16 µM [falling, full curve].

In the case of `COc1cc(C)ccc1OCCSc1nc2ccc(NC(=O)c3cccs3)cc2s1`, the AC50 under setting [1] is 5.01 µM [falling, full curve]. Consider `Cc1ccc(CNC(=O)CN2C(=O)CSc3ccc(S(=O)(=O)N4CCCC4)cc32)cc1`, for which the AC50 under setting [1] is 39.8 µM [falling, single point]. For the molecule `CCc1ccc(C(=O)CSc2nc(-c3ccccc3)nc3c2CCCC3)cc1`, the AC50 under setting [1] is 25.1 µM [falling, single point]. For `O=C(Nc1ccc2oc(-c3ccccc3)nc2c1)c1ccc2c(c1)OCCO2`, under setting [1], the AC50 is 12.6 µM [falling, partial curve]. `CN(C)c1ccc(CNC(=O)CN2C(=O)CCn3nc(-c4cn(C)c5ccccc45)cc32)cc1`: the AC50 under setting [1] was 6.31 µM [falling, full curve].

`Cc1c(NC(=O)Nc2ccc(Cl)c(C(F)(F)F)c2)c(=O)n(-c2ccccc2)n1C`: the AC50 under setting [1] was 39.8 µM [falling, single point]. The same measure, in the same setting: with `Fc1ccccc1N1CCN(c2ncnc3onc(-c4cccc(Cl)c4)c23)CC1` the figure was 15.8 µM [falling, partial curve]; with `CCOC(=O)CSc1nnc(-c2cccc(Br)c2)o1`, 15.8 µM [falling, partial curve]. On the same count and under the same terms, the value for `CC(=O)Nc1ccc(NC(=O)c2nc(SCc3ccccc3C)ncc2Cl)cc1` was 2.51 µM [falling, full curve]; that for `Cc1cccn2c(=O)cc(COc3ccc(NC(=O)C(C)Oc4ccccc4)cc3)nc12` (stereo not drawn) was 0.0251 µM [falling, full curve]. As for `Cn1c(=O)c2c(-c3ccccc3Br)n(Cc3ccccc3)cc2n(C)c1=O`, under setting [1], the AC50 was 25.1 µM [falling, partial curve]. As to `NS(=O)(=O)c1ccc(NC(=O)CN2CCN(c3ccc(F)cc3)CC2)cc1`, the AC50 under setting [1] was 20 µM [falling, partial curve, poor fit]. On the same count and under the same terms, with `COc1ccc(-c2cc3c(=O)n(CC(=O)Nc4cc(C)ccc4C)ccn3n2)cc1` the figure was 3.16 µM [rising, full curve]; with `Cc1ccc(Cl)cc1-n1ncc2c(NCCC3=CCCCC3)ncnc21`, 39.8 µM [falling, single point]; with `Cc1ccc(CNC(=O)c2cccc(NC(=O)N3CCSc4ncccc43)c2)cc1`, 15.8 µM [falling, partial curve]. Regarding `Cc1cc(C)cc(NC(=O)CCCc2nnc3n(CC(C)C)c(=O)c4sccc4n23)c1`, the AC50 under setting [1] was 15.8 µM [falling, partial curve]. For the molecule `Cc1ccc(NC(=O)c2ccc3c(c2)NC(=O)c2ccccc2S3)cc1`, the AC50 under setting [1] was 15.8 µM [falling, partial curve]. Regarding `CCC1S/C(=C(\C#N)C(=O)NCc2ccco2)N(c2ccc(Br)cc2)C1=O` (stereo not drawn), the AC50 under setting [1] is 12.6 µM [falling, partial curve]. Still for that read-out and setting: the value for `CC(C)(C)c1nc(SCC(=O)NCc2ccco2)c2ccccc2n1` was 39.8 µM [falling, single point]; that for `CCOc1cc(C2CC(=O)Nc3c2c(=O)nc(SCc2cccc(Cl)c2)n3C)ccc1O` (stereo not drawn) was 15.8 µM [falling, partial curve]; that for `O=C(Nc1cccc(Cl)c1)c1cc(S(=O)(=O)N2CCCc3ccccc32)ccc1F` was 12.6 µM [falling, partial curve]. In the case of `Cc1ccccc1CNC(=O)c1cc2cccc3c2n1CC(C)S3` (stereo not drawn), the half-maximal activity concentration (AC50) under setting [1] was 25.1 µM [falling, partial curve]. Turning to `O=c1oc2ccccc2cc1NCc1ccccc1O`, the AC50 under setting [1] is 15.8 µM [falling, partial curve]. For `COc1ccc(Cl)cc1NC(=O)Cn1nnc(C(=O)NCc2cccs2)c1N`, the AC50 under setting [1] was 3.16 µM [rising, full curve]. Regarding `COc1ccccc1NC(=O)COC(=O)CC(C)(C)CC1=NS(=O)(=O)c2ccccc2N1`, the AC50 under setting [1] is 20 µM [falling, partial curve]. With `COc1cccc(-c2cc(C(=O)N3CCN(c4ncccn4)CC3)c3ccccc3n2)c1`, the AC50 under setting [1] is 3.98 µM [falling, full curve]. In the case of `COc1ccc(N2CCN(C(=O)c3c4c(nc5ccccc35)C(=O)N(C3CCCCC3)C4)CC2)cc1`, the AC50 by setting is: (measured here: IkB-luc green channel) 0.0501 µM [rising, full curve, poor fit]; (measured here: control luc red channel) 12.6 µM [falling, partial curve]. `O=C(Nc1ccc2nc(SCC(=O)N3CCCC3)sc2c1)c1cccc(F)c1`: the AC50 under setting [1] is 12.6 µM [falling, partial curve]. With `Cc1ccc(C2c3c(-c4ccccc4O)n[nH]c3C(=O)N2Cc2ccncc2)cc1` (stereo not drawn), under setting [1], the AC50 is 15.8 µM [falling, partial curve]. On the same count and under the same terms, the value for `COc1ccc2cc(C(c3nnnn3C3CCCC3)N3CCc4ccccc4C3)c(=O)[nH]c2c1` (stereo not drawn) was 39.8 µM [falling, single point]; that for `COC(=O)c1ccc(NC(=O)CN(C)S(=O)(=O)c2ccc(OC)c(C)c2)cc1` was 10 µM [falling, partial curve]. Turning to `O=C(CN(c1cccc(C(F)(F)F)c1)S(=O)(=O)c1ccccc1)Nc1cccc(Cl)c1`, under setting [1], the AC50 is 20 µM [falling, partial curve, poor fit]. Take `Cc1ccc([N+](=O)[O-])c(Oc2ncnc3c2oc2ccccc23)c1`: the AC50 under setting [1] is 0.00631 µM [rising, full curve, poor fit]. `CCOC(=O)c1c(-c2ccc(C)cc2C)csc1NC(=O)c1ccccc1Cl`: the AC50 under setting [1] was 15.8 µM [falling, partial curve].

Consider `NC(=O)C1CCN(C(=O)c2ccc3c(c2)N(Cc2cccc(Cl)c2)C(=O)c2ccccc2S3(=O)=O)CC1`, for which the AC50 under setting [1] was 20 µM [rising, partial curve, poor fit]. Still for that read-out and setting: with `CCOC(=O)c1snc(-c2ccc(F)cc2)c1N` the figure was 0.631 µM [rising, full curve, poor fit]; with `Clc1ccc(OCc2nc(-c3ccccn3)n[nH]2)cc1`, 15.8 µM [falling, partial curve]; with `NC(=O)Cn1c(=O)n(CCCCCC(=O)NCc2ccccc2Cl)c(=O)c2sccc21`, 0.1 µM [rising, full curve, poor fit].
